Assay results: patent publication US5985827A, “Conformationally stabilized cell adhesion peptides” (La Jolla Cancer Research Foundation, priority 1995, dated 1999)
Not every detail of the peptide structures is certain; ends, links or a residue may be inferred. Where a SMILES comes first, the peptide text is derived from it. [ ]: non-standard residue; d: D form. Pen = CC(C)(S)[C@H](N)C(=O)O

How the values were obtained:
[1] = system: adhesion of normal rat kidney cells to vitronectin; test: Cell adhesion assay: inhibition of attachment of normal rat kidney cells to vitronectin; type: cell-based; conditions: wells coated with human plasma vitronectin, peptide 0 to 10.0 mM, FIG. 2
[2] = system: adhesion of normal rat kidney cells to fibronectin; test: Cell adhesion assay: inhibition of attachment of normal rat kidney cells to fibronectin; type: cell-based; conditions: wells coated with human plasma fibronectin, peptide 0 to 10.0 mM, FIG. 2

## CC(C)(S)[C@H](NC(=O)CN)C(=O)NCC(=O)N[C@@H](CCCNC(=N)N)C(=O)NCC(=O)N[C@@H](CC(=O)O)C(=O)N[C@@H](CO)C(=O)N1CCC[C@H]1C(=O)N[C@@H](CS)C(=O)O [linear peptide, Gly-Pen-Gly-Arg-Gly-Asp-Ser-Pro-Cys] (H-G[Pen]GRGDSPC-OH)
[1]
  inhibition of attachment to vitronectin: inhibited attachment of cells to both substrates at relatively similar concentrations
[2]
  inhibition of attachment to fibronectin: inhibited attachment of cells to both substrates at relatively similar concentrations

## C[C@H](NC(=O)[C@@H]1CSSC(C)(C)[C@H](NC(=O)CN)C(=O)NCC(=O)N[C@@H](CCCNC(=N)N)C(=O)NCC(=O)N[C@@H](CC(=O)O)C(=O)N[C@@H](CO)C(=O)N2CCC[C@H]2C(=O)N1)C(=O)O [cyclic peptide, Gly-Pen-Gly-Arg-Gly-Asp-Ser-Pro-Cys-Ala]
[1]
  molar concentration inhibiting attachment to vitronectin, fold lower than the linear peptide: 10 fold
[2]
  inhibition of attachment to fibronectin: ineffective
